From paper PMC10626543 come the findings set out here.

The chains behind the UniProt entries cited, without tags or fusion partners. Residues count along the entry.
UniProt P48678, residues 1-647: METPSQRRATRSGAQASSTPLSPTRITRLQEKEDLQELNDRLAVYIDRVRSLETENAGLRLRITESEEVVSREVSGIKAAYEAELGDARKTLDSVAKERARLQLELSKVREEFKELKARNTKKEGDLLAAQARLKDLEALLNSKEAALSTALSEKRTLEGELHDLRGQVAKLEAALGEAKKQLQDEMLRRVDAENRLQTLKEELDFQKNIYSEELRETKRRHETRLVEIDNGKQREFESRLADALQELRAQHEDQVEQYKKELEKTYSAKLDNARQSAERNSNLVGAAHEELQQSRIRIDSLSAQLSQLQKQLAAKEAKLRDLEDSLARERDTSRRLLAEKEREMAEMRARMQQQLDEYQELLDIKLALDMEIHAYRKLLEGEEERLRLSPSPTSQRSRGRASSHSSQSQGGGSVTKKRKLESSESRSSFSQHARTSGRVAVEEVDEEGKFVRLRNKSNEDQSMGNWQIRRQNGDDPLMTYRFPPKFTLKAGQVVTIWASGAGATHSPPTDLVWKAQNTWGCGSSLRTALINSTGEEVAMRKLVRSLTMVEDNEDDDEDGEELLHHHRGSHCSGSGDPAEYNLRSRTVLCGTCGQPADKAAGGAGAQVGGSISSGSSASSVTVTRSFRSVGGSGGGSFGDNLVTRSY

In assay [1] the target is native lamin A/C (mouse (endogenous in heart, skeletal muscle and brain)) (UniProt P48678). As to the kind of experiment: affinity purification with mass spectrometry; native lamin A/C immunoprecipitated with mAb 4C11 and Protein G Sepharose from sonicated heart lysates of old IL10-KO and control C57Bl/6 female mice (five each); 50 mM Tris pH 7.4, 300 mM NaCl, 0.3% Triton X-100, 4°C; TMT 10-plex.

Assay [2] shares this target. As to the kind of experiment: affinity purification with mass spectrometry; native lamin A/C immunoprecipitated with mAb 4C11 and Protein G Sepharose from sonicated skeletal muscle lysates of old IL10-KO and control C57Bl/6 female mice (five each); 50 mM Tris pH 7.4, 300 mM NaCl, 0.3% Triton X-100, 4°C; TMT 10-plex.

These are yes or no findings as the source states them, for the method shown. Binding seen in cells or lysates may run through a third protein. Here binding means that the protein was enriched with, or labelled near, the bait; the list need not be complete.

B1: PDZ and LIM domain protein 5 (protein, UniProt Q8CI51-2 1-337)
chain: MSNYSVSLVGPAPWGFRLQGGKDFNMPLTISSLKDGGKASQAHVRIGDVVLSIDGISAQGMTHLEAQNKIKACTGSLNMTLQRASAAAKSEPVSVQKGEPKEVVKPVPITSPAVSKVTSTTNMAYNKAPRPFGSVSSPKVTSIPSPSSAFTPAHAATSSHASPTPVAAATPLHLSASGLHVSANLSADQCSSPPNTGKPAVNVPRQPTVTSVCSESAQELAEGQRRGSQGDIKQQNGPPRKHIVERNTEFYHIPTHSDASKKRLIEDTEDWRPRTGTTQSRSFRILAQITGTEHLTESENDNTKKAKEKIPLHVFSPKYTKLRDWHHEVSARALNVQ
For B1, the binding entry in assay [1] and in assay [2] was “binds” in each case.

B2: SH3 domain-containing protein 21 (protein, UniProt Q7TSG5 1-549)
chain: MVQSELQLQPRAGRRADASNWGDFGSDKGGLGNTDIPPITPNSQRPPKLSNLTYDSPPDYLRTVSCPETCRVLFDYQPEAPDELALQKGDLVKVLRKTTEDKGWWEGECQGRRGVFPDNFVIPPPPIRKLIPRKIISRESAPIKETKKLMPKSSLPTVKKLAAAASAPGRAKTLSTPSGDSQKRPSRNSGFNGSCLNGGPRQPGRKGSRTQASQQHSASSQEDEQKSPGKGPSRSKTPTPEKTRLPDKVLAPETIPAPDKVSIPKDPVPKKAPDSDKIPATEDTTLDKAGTPESTLSGNKPAKDEALDLKMALHEDTAPALVKILTPEHMIFKKEPSRDNDQCQHLPQGGSTQRPESPAPSNNIQVPGEYSPPPDSSERSCCRVRQVNGSFPAQSKAEDVSAMEEANFLEEPLAKDERTLNKALPKKLPSERAGPQKQVLPQESAPTPQVPHTIQQMPVPEEAPTLHPLTPLTSPKSKNDRMDVLESLKEEVGLLRSRLELLELKLEQKMGDVWEELKTETLLSPEVQMMQRNRKSFKHAETQTETQTE
In the case of B2, the binding result in assay [1] and in assay [2] was “binds” each time.

B3: Interleukin-1 receptor-associated kinase-like 2 (protein, UniProt Q8CFA1 1-622)
chain: MACYIYQLPSWVLDDLCRNIDTLSEWDWMQFASYVITDLTQLRKIKSMERVQGVSITRELLWWWSMRQATVQQLVDLLCHLELYRAAQIVLSWKPVPESTSPLPAFPEAVKPGAVATSRRNLKDEQEKVRPVKPRSLLDTGPIMAGAQRQRPCEMDAPCSLKTDAPDSPQSKYCSTSTSAPKQERLLGLPGDRLFWSEADVVQATEDFDQSHRISEGTFADIYQGQRNGVAFAFKKLREVAGSSPGSMDRFLQAEMQLCLRCCHANVLPLLGFCTGRQFHSLIYPYMANGSLHDRLWAQGNSDMLPWPQRASICSGLLLAVEHLHSLDIIHSNVKSANVLLDQHLNPKLAHPVAHPHPDNKKTKYTVMRTHLFQASAAYLPEHFIRVGQLTKQVDIFSCGIVLAEVLTGIPAMDKDRSPVYLKDLLLSEIPNSTSSVCSRKTSMGKAVVKEICQRHVEKRAGLLPEACEEAWATAVSVCLRRRNASVEEARVSLAGVEEQLRGQLSLPWSRVSEATGSSSNTPEETDDVDNSSLSVPSLVMMASCPGAASSPLFTGHGAAQPSTSGRQEADSSSEACTGPQTPQNATETSWKIEINEAKRRLMENIVLYKEERLDSSELFGP
As to B3, the binding entry in assay [1] and in assay [2] was “binds” each time.

B4: Fatty acid-binding protein, adipocyte (mouse) (protein, UniProt P04117 1-132)
chain: MCDAFVGTWKLVSSENFDDYMKEVGVGFATRKVAGMAKPNMIISVNGDLVTIRSESTFKNTEISFKLGVEFDEITADDRKVKSIITLDGGALVQVQKWDGKSTTIKRKRDGDKLVVECVMKGVTSTRVYERA
For B4, the binding result in assay [1] and in assay [2] was “binds” each time.

B5: dystrobrevin-alpha (protein, UniProt Q9D2N4 1-746)
chain: MIEDSGKRGNTMAERRQLFAEMRAQDLDRIRLSTYRTACKLRFVQKKCNLHLVDIWNVIEALRENALNNLDPNIELNVARLEAVLSTIFYQLNKRMPTTHQIHVEQSISLLLNFLLAAFDPEGHGKISVFAVKMALATLCGGKIMDKLRYIFSMISDSSGVMVYGRYDQFLREVLKLPTAVFEGPSFGYTEQSARSCFSQQKKVTLNGFLDTLMSDPPPQCLVWLPLLHRLANVENVFHPVECSYCHSESMMGFRYRCQQCHNYQLCQDCFWRGHAGGSHSNQHQMKEYTSWKSPAKKLTNALSKSLSCASSREPLHPMFPDQPEKPLNLAHIVPPRPVTSMNDTLFSHSVPSSGSPFITRSSPPKDSEVEQNKMLARAAPAFLKGRGIQYSLNVADRLADEHVLIGLYVNMLRNDPPCMLESSNRLDEEHRLIARYAARLAAESSSSQPTQQRSAPDISFTIDANKQQRQLIAELENKNREILQEIQRLRVEHEQASQPTPEKAQQNPTLLAELRLLRQRKDELEQRMSALQESRRELMVQLEGLMKLLKEEELKQGTQGASSPRSSPSHTISRPIPMPIRSASACPTPTHTPQDSLTGVGGDVQEAFAQSSRRNLRSDLLVAADSITNTMSSLVKELNSEVASETESTVDSEFSRPQFEDLAPSPTSEKAFLAQIHSRKPGYIHGGAASTTHGDMVPEDGDPYTQPEDGNYENESVRQLENELQLEEYLKQKLQDEAYQVSLQG
With B5, the binding result in assay [1] and in assay [2] was “binds” in each case.

B6: Tyrosine-protein kinase SgK223 (protein, UniProt Q571I4 1-1373)
chain: MSACSDFVEHIWKPGSCKNCFCLRSDHQPTAGHPKARANSLPAGTRLPARPENCRLDDEGVNGLAYSKPTIAVKPTMMTSETSDLWTEASLSAEVPKVNWRRTPGKLLLPKQEDEPIVYLGSFRGLQKPASPLACTDGNSRCPPAYTMVGLHNLEARVDRNTAFQPVSFQEEKAGREELPSAHESFRQKLAAFAGMTSSCPKGPRPCTSPQPLRESLPSEDDSDQRCSPSGDSEGGEYCSILDCCPESKDAVHSTEGSGRRGGDCSPTCREQGPRTRPTEEEKQGLSFPRECCGQGSTANPPRLGPKKPSLNSEAASSSDGLSCGSSRSGASSPFAPHLENDYCSLVKEPASGKQQDLSGHFLTSGKCVGQAAELQPASLLRDPVQPEPIYAESAKRKKAAPGPPRPEPKKEQVPAGHSQGQVWTGDTWIQKTPPSWSQDREGANPAPQVATTITVIAAHPEEDHRTIYLSSPDSAVGVQWPRGPSNQDLQAGEEEPLVAQGLTSRESHPHNVTENTAKEKPAIPPKLSKSSPGGSPVSPAPPLTDHSDGNTGGSSVGPQLLSRVPANLTSSCHTNGVATAGDSAKCPPPATSSSVLDQRRPRYQTGAWSRQCRIEEEEEVGQELSQSWGRELENGTADHSNSSTWHRLHPIDGTSGQNSKTNSGMSKSASFAFEFPKDRGRLEAFSPPPPPPKSRHLLKMNKSSSDLEKVSQSSAESLSPSFRGAHVSFTTGSTDSLASDSRPCSDGGPSYEPTHSPTISGKKLFAPVPFPSGSTEDVSPGGGPAQPPPLPQKKIVSRAASSPDGFFWTQGSPKPRTASPKLNLSHSETNVCAHDEPPFNCSLNSGNRSHHVFSSSEPLGKAFKGNAPWAPALGLANSKGGCGSPSLQCRAATSTSSSQLSVSSQASSSSTQLQLHSLLSSISSKEGTYAKLGGLYTQSLARLVTKCEDLFMGGQKKELRFNENYWSLFKLTCNKPCCDSGDAIYYCATCSEDPGSIYAVKICKTPEPKSASYCSPSVPVHFNIQQDCGHFVASVPSSMLASPDTSSKDTAPAVSPQPPAQEQDCVVVITREVPHQTASDFVRDSMASHRAEPEVYERRVCFLLLQLCNGLEHLKEHGIIHRDLCLENLLLAHCNPQSSPGPSATPTVPTTTSRCPSAAPAATTACQGGPGEKQLPRLIISNFLKAKQKPGGTTNLQQKKSQARLAPEIVSASQYRKFDEFQTGILIYELLHQPNPFEVRAQLRERDYRREDLPPLPTLSLYSPGLQQLAHLLLEADPIKRIRIGEAKRVLQCLLWGPRRELVEQPCTSEEVLCNTLHNWIDMKRALMMMKFAEKAVDRRRGVELEDWLCCQYLASAEPGALLQSLKLLQLL
With B6, the binding entry in assay [1] and in assay [2] was “binds” each time.

B7: Cryab (aka Hspb5) (protein, UniProt P23927 1-175)
chain: MDIAIHHPWIRRPFFPFHSPSRLFDQFFGEHLLESDLFSTATSLSPFYLRPPSFLRAPSWIDTGLSEMRLEKDRFSVNLDVKHFSPEELKVKVLGDVIEVHGKHEERQDEHGFISREFHRKYRIPADVDPLTITSSLSSDGVLTVNGPRKQVSGPERTIPITREEKPAVAAAPKK
As to B7, the binding entry in assay [1] and in assay [2] was “binds” in each case.

B8: Fhl1 (protein, UniProt P97447 1-280)
chain: MSEKFDCHYCRDPLQGKKYVQKDGRHCCLKCFDKFCANTCVDCRKPISADAKEVHYKNRYWHDNCFRCAKCLHPLASETFVSKDGKILCNKCATREDSPRCKGCFKAIVAGDQNVEYKGTVWHKDCFTCSNCKQVIGTGSFFPKGEDFYCVTCHETKFAKHCVKCNKAITSGGITYQDQPWHAECFVCVTCSKKLAGQRFTAVEDQYYCVDCYKNFVAKKCAGCKNPITGFGKGSSVVAYEGQSWHDYCFHCKKCSVNLANKRFVFHNEQVYCPDCAKKL
Take B8: the binding result in assay [1] and in assay [2] was “binds” throughout.

B9: Trimeric intracellular cation channel type A (protein, UniProt Q3TMP8 1-298)
chain: MDLMSALSLGELALSFSRVPLFPVFDLSYFIVSIIYLKYEPGAVELSRRHPVASWLCAMLHCFGSYILADLLLGEPIIDYFSNSSSILLASGVWYLIFFCPLDLFYKCVCFLPVKLIFVAMKEVVRVRKIAVGIHHAHHHYHHGWFIMIATGWVKGSGVALLSNVEQLLRGVWKPETNEILHMSFPTKASLYGAILFTLQQTRWLPVSKASLIFVFTMFMVSCKVFLTATHSHSSPFDILEGYICPVLFGATWGGDHHHDNHGAPHGMGLGTQHSGLPAKAKEELGEGSRKKKTKKAD
As to B9, the binding result in assay [1] and in assay [2] was “binds” throughout.
